Measured values published in the supplement of paper PMC7858590.
The full ranking holds about 3,800 compounds; the median of “cell shape (eccentricity) Z-score vs DMSO control” is about 1.1, and the lowest 2% start at about -4.7. This is one part of the list.

What follows are compounds tested on human monocyte-derived macrophages (M0) (assay: cell shape (eccentricity) Z-score vs DMSO control; higher = more elongated, M2-like morphology). Details: 20 µM; 24 h; macrophage state: M0 (M-CSF).

Compound | cell shape (Z-score)
O=C(O)C[C@H](O)C[C@H](O)/C=C/c1c(C2CC2)nc2ccccc2c1-c1ccc(F)cc1 | 7.49
CCN1CCCC(OC(=O)C(c2ccccc2)c2ccccc2)C1 (configuration not stated) | 1.7
N[C@@H](Cc1cc(I)c(Oc2cc(I)c(O)c(I)c2)c(I)c1)C(=O)O | 1.99
CC(C(=O)O)c1ccc(C(=O)c2cccs2)cc1 (configuration not stated) | 1.76
COc1ccc([C@@H]2Sc3ccccc3NC(=O)[C@@H]2O)cc1 | 1.73
CCCOc1ccc2[nH]c(NC(=O)OC)nc2c1 | -1.59
CC(CCC(=O)NCC(=O)O)C1CCC2C3CCC4CC(O)CCC4(C)C3CC(O)C12C (configuration not stated) | 4.22
CNc1ccccc1C(=O)OC1OC(C)C(O)C(O)C1O (configuration not stated) | -2.09
CCCc1c(C(=O)O)c(O)cc2c1C(=O)c1c(O)cccc1C2=O | 2.8
COc1cc(SC)ccc1C(=O)N1CCC(Cc2ccccc2)CC1 | 2.8
COC(=O)C1=C(C)NC(C)=C([N+](=O)[O-])[C@@H]1c1ccccc1C(F)(F)F | 0.903
COC(=O)C1=CO[C@@H](O[C@@H]2O[C@H](CO)[C@@H](O)[C@H](O)[C@H]2O)C2C1CC(O)C2C (some centres not stated) | 2.67
CC(=O)OC(C[C@@]1(C)[C@H](C)[C@H](OC(C)=O)C[C@@]23COC(=O)C2=CCC[C@@H]31)c1ccoc1 (some centres not stated) | 3.03
CCn1c(=O)c2c(nc(C=Cc3ccc(OC)c(OC)c3)n2C)n(CC)c1=O | 2.33
CS(=O)(=O)N1CCN(Cc2cc3nc(-c4cccc5[nH]ncc45)nc(N4CCOCC4)c3s2)CC1 | -3.32
C[C@]1(c2nc3c(C(N)=O)cccc3[nH]2)CCCN1 | 3.49
O=C(CCc1ccc(O)cc1)CC(CCc1ccc(O)cc1)O[C@@H]1O[C@H](CO)[C@@H](O)[C@H](O)[C@H]1O (some centres not stated) | -3.05
CCCOc1ccccc1-c1nc2[nH]nnc2c(=O)[nH]1 | 1.55
C[C@H](CCC(=O)O)[C@H]1CCC2[C@@H]3CC[C@@H]4C[C@H](O)CC[C@]4(C)C3C=C[C@@]21C (some centres not stated) | -2.01
CC1OC(OCC2OC(Oc3c(-c4ccc(O)c(O)c4)oc4cc(O)cc(O)c4c3=O)C(O)C(O)C2O)C(O)C(O)C1O (configuration not stated) | 0.225
CC(=O)OCC(Cc1ccccc1)NC(=O)C(Cc1ccccc1)NC(=O)c1ccccc1 (configuration not stated) | 0.368
O=C(CCCN1CCN(c2ccccn2)CC1)c1ccc(F)cc1 | 1.5
COc1cc(-c2ccc(=O)[nH]n2)ccc1OC(F)F | 6.73
CC(C)Cc1ccc(C(C)C(=O)O)cc1 (configuration not stated) | 0.485
COc1cc(NS(=O)(=O)c2ccc(N)cc2)ncn1 | 1.52
CC(C)(Oc1ccc(Cl)cc1)C(=O)OCCOC(=O)c1cccnc1 | -0.543
CC(C)=CCc1c(O)cc(O)c2c(=O)cc(-c3ccc(O)cc3)oc12 | 0.624

2 entries from above, field by field:
CCCc1c(C(=O)O)c(O)cc2c1C(=O)c1c(O)cccc1C2=O
  cell shape (Z-score): 2.8
CCCOc1ccccc1-c1nc2[nH]nnc2c(=O)[nH]1
  cell shape (Z-score): 1.55
